Measured values published in the supplement of paper PMC10338343.
± gives the standard deviation. The entries are a selection whose mix differs from that of the whole data set. Many entries were measured with a wide error.

System: MILI (PIWIL2) piRISC loaded with L1MC piRNA (26 nt)
Assay: pre-steady-state target cleavage rate (min^-1); MIWI and MILI are mouse PIWI proteins and EfPiwi is from a freshwater sponge; tags in brackets are library labels; higher = faster piRNA-guided slicing of the target
Details: guide: L1MC piRNA 5'p-UAACUAAAUACUAUGCAAGCUGUAGG; auxiliary factor: 500 nM mouse GTSF1
Description: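 Cleave-'n-Seq: a library of target RNAs (target site embedded in constant flanks, ACAGCATTCCGCGTTAGTGATATCCG... 5' flank; DNA-blocked outside the site) at 0.1 nM was incubated with 1 nM active mouse MILI or MIWI piRISC (synthetic 5'-monophosphorylated piRNA guide) with or without 500 nM mouse GTSF1 at 33 °C for 1 min to 16 h. Uncleaved targets were sequenced and normalised to non-target controls, and the pooled three trials were fitted to a burst-and-steady-state model to give the pre-steady-state cleavage rate (min^-1; k3 is constrained to at most 1e-4). Sequence is the target site only; target names encode pairing extent (gX:gY) and contiguous / 1-mismatch / 2-mismatch / bulge geometry. Fits with R² ≤ 0 are excluded.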

| Sequence | pre-steady-state target cleavage rate |
| --- | --- |
| UCCUGCUACAGCUAGCAUAGUAUUUAGUAA | 0.212 ± 0.019 |
| UCCUGGAUGUCGAAGCAUAGUAUUCAGUUA | 0.00908 ± 0.0042 |
| UCCUGGAUGAGCAUGCAUAGUAUUUACAAA | 0.0679 ± 0.018 |
| UCCUGGAUCGGCUUGCAUAGUAUUUAGUUA | 0.261 ± 0.016 |
| UCCUGGUACAGCAUUGCAUAGUAUUUAGUUA | 0.257 ± 0.039 |
| UCCUGGUACAGCUUGCUUACUAUUUAGUUA | 0.0679 ± 0.012 |
| UCCUGGAUGUCGUUGCAUAUGUAUUUAGUUA | 0.000768 ± 0.0088 |
| UCCUCCUACAGCUUGCAUAGUAUUAAGUAA | 0.17 ± 0.037 |
| UCCUGGAUGUCGUUGCGAUAGUAUUUAGUUA | 0.00025 ± 0.025 |
| UCCUCCUACAGCUUGCAUAGUAUUUACUAA | 0.114 ± 0.027 |
| UCCUGGAUGUCGAUGCAGUAGUAUUUAGUUA | 0.00062 ± 0.013 |
| UCCUGGAUGUCGAAGCAUACGUAUUUAGUUA | 0.000337 ± 0.027 |
| UCCUGCUACAGGUUGCAUAGUAUAUAGUUA | 0.305 ± 0.036 |
| UCCUGGAUGUGCUUGCAUAGUAUUUUCUAA | 0.00295 ± 0.0042 |

Same assay, conditions: guide: L1MC piRNA 5'p-UAACUAAAUACUAUGCAAGCUGUAGG; auxiliary factor: none (no GTSF1)

| Sequence | pre-steady-state target cleavage rate |
| --- | --- |
| UCCUGCUACAGCUAGCAUAGUAUUUAGUAA | 0.00281 ± 0.0031 |
| UCCUGGAUGUCGAAGCAUAGUAUUCAGUUA | 0.000999 ± 0.0047 |
| UCCUGGAUGAGCAUGCAUAGUAUUUACAAA | 0.0019 ± 0.0041 |
| UCCUGGAUCGGCUUGCAUAGUAUUUAGUUA | 0.0131 ± 0.0022 |
| UCCUGGUACAGCAUUGCAUAGUAUUUAGUUA | 0.0159 ± 0.0049 |
| UCCUGGUACAGCUUGCUUACUAUUUAGUUA | 0.00375 ± 0.0027 |
| UCCUGGAUGUCGUUGCAUAUGUAUUUAGUUA | 0.000311 ± 0.013 |
| UCCUGGAUGAGCUUGCAUAGUAUAAAGUUA | 0.00273 ± 0.0029 |
| UCCUGGAUGUCGAACGUAUGCAUUUAGUUA | 0.000265 ± 0.013 |
| UCCUGGAACAGCUUGCAUAGUAUUUAGGUA | 0.00216 ± 0.0032 |
| UCCUCCUACAGCUUGCAUAGUAUUAAGUAA | 0.00176 ± 0.0038 |
| UCCUGGAUGUCGUUGCGAUAGUAUUUAGUUA | 0.000214 ± 0.015 |
| UCCUCCUACAGCUUGCAUAGUAUUUACUAA | 0.00139 ± 0.0043 |
| UCCUGGAUGUCGAUGCAGUAGUAUUUAGUUA | 0.000121 ± 0.029 |
| UCCUCCUACAGCUUGGAUAGUAUUUAGAAA | 0.00116 ± 0.0051 |
| UCCUGCUACUGCUUGCAUAGUAUUUACUUA | 0.00252 ± 0.0032 |
| UCCUGGAUGUCGAACGUAAGAUAUUUAGUUA | < 0.0001 |
| UCCUGGAUCAGCUUGCAUAGUAUUUGUUA | 0.00113 ± 0.0056 |
| UCCUGGAUGUCCUUGCAUAGUUAAUAGUAA | 0.00103 ± 0.0048 |
| UCCUGCUACAGCUUGCAUAGUAAUAAGUUA | 0.00154 ± 0.0043 |
| UCCUGGAUGUCGAAGCAUACGUAUUUAGUUA | 0.000239 ± 0.02 |
| UCCUGCUACAGCUUGCAUAGUAUUAACUUA | 0.00208 ± 0.0034 |
| UCCUGGAUGUGCUUGCAUAGUAUUUUCUAA | 0.00066 ± 0.011 |
| UCCUGGUAGAGCUUGCAUAGUAUUUAGAUA | 0.00292 ± 0.003 |
| UCCUGGAUCACGAUGCAUAGUAUUUACAAA | 0.000871 ± 0.0068 |
